Data: patent publication US20050014679 (published 2005)

Experiment: general procedure: peptide synthesis; NHS esters prepared with DCC/NHS
Conditions: late stage modification step
[1] = analytical reversed-phase HPLC, LC-MS

Substance | step yield (overall) | also measured
A0^ArgB0^ArgB28^Lys-Nε-ArgB29^Pro Insulin | approximately 34% | crude HPLC purity [1]: approximately 70%
A0^ArgB29^Lys-Nε-Arg-Insulin | approximately 30% | –
A0^ArgB-1^ArgB0^Arg-Insulin | – | step yield: 12%
A0^gHRB0^gHRB29^Lys-Nε-gHR-Insulin | approximately 29% | crude LC-MS purity [1]: approximately 60%
A21^GlyB29^Lys-Nε-ArgC64^ArgC65^Lys-Nε-Arg-human proinsulin derivative | – | crude HPLC purity [1]: approximately 65%
A-1^ArgA0^Arg-Insulin | approximately 10% | –
B-1^ArgB0^Arg-Insulin | approximately 8% | –
